Source: paper PMC4094682
These are yes or no findings as the source states them, for the method shown. In cells and extracts the contact can be indirect. Some binding calls cover weakened binding; strength is not graded here. For some assays here: Tags and fused reporters may be left off the sequences shown. One block for each binder: values may come before it.

The chains behind the UniProt entries cited, without tags or fusion partners.
UniProt P49841: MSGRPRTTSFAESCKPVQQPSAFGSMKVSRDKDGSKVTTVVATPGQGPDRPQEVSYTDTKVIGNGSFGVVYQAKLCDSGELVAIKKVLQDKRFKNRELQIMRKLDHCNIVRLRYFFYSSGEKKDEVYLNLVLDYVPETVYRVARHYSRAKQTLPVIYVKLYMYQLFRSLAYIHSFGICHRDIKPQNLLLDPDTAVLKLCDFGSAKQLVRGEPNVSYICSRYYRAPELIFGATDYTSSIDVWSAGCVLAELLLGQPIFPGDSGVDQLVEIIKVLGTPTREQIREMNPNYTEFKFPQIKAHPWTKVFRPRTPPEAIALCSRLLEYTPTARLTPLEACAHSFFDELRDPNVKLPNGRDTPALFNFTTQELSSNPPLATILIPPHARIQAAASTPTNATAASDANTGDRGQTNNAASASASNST
UniProt Q9WV60: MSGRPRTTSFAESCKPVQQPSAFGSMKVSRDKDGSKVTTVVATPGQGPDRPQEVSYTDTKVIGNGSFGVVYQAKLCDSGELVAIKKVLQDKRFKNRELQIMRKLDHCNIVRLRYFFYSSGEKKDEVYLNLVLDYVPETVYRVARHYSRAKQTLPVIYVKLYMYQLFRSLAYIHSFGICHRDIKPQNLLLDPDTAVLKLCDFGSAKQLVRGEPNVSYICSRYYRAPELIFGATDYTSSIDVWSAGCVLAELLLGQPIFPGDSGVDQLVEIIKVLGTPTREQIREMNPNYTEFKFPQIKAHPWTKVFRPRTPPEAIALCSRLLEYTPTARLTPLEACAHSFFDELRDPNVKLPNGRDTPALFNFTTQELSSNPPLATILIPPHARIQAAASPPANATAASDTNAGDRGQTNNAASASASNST

How the values were obtained:
[1] = molecular target: FLAG-GSK-3β (Glycogen synthase kinase 3β) (UniProt P49841); test: co-IP; HEK293T co-transfected with FLAG-GSK-3β and GFP-ALDOC or GFP-ALDOB (also increasing amounts of GFP-ALDOC DNA); lysates precipitated with anti-FLAG M2-agarose, 2 h at 4°C, washed four times with lysis buffer; Western blot
[2] = molecular target: endogenous GSK-3β (HEK293T) (human (endogenous in HEK293T)) (UniProt P49841); test: co-IP; HEK293T co-transfected with GFP-Axin or empty vector and with GFP-ALDOC, GFP-ALDOB or empty vector; lysates precipitated with goat anti-Axin antibody or control unimmuned serum; blots with anti-GFP, anti-GSK-3β, anti-tubulin
[3] = molecular target: endogenous GSK-3β (mouse brain) (mouse (endogenous in mouse brain)) (UniProt Q9WV60); test: co-IP; mouse brain extracts homogenised in RIPA buffer; rabbit anti-GSK-3β antibody or control unimmuned serum, protein A/G agarose; blots with anti-GSK-3β, anti-ALDOC, anti-ALDOB

binding [1]: binds
binding [2]: binds
B1: GFP-ALDOB (Aldolase B) (enzyme, UniProt P05062 1-364)
chain: MAHRFPALTQEQKKELSEIAQSIVANGKGILAADESVGTMGNRLQRIKVENTEENRRQFREILFSVDSSINQSIGGVILFHETLYQKDSQGKLFRNILKEKGIVVGIKLDQGGAPLAGTNKETTIQGLDGLSERCAQYKKDGVDFGKWRAVLRIADQCPSSLAIQENANALARYASICQQNGLVPIVEPEVIPDGDHDLEHCQYVTEKVLAAVYKALNDHHVYLEGTLLKPNMVTAGHACTKKYTPEQVAMATVTALHRTVPAAVPGICFLSGGMSEEDATLNLNAINLCPLPKPWKLSFSYGRALQASALAAWGGKAANKEATQEAFMKRAMANCQAAKGQYVHTGSSGAASTQSLFTACYTY

binding [3]: binds
B2: endogenous ALDOB (mouse brain) (enzyme, UniProt Q91Y97 1-364)
chain: MAHRFPALTPEQKKELSEIAQRIVANGKGILAADESVGTMGNRLQRIKVENTEENRRQFRELLFSVDNSISQSIGGVILFHETLYQKDSQGNLFRNVLKEKGIVVGIKLDQGGAPLAGTNKETTIQGLDGLSERCAQYKKDGVDFGKWRAVLRIADQCPSSLAIQENANALARYASICQQNGLVPIVEPEVLPDGDHDLEHCQYVSEKVLAAVYKALNDHHVYLEGTLLKPNMVTAGHACTKKYTPEQVAMATVTALHRTVPAAVPGICFLSGGMSEEDATLNLNAINRCPLPRPWKLSFSYGRALQASALAAWGGKAANKKATQEAFMKRAMANCQAAQGQYVHTGSSGAAATQSLFTASYTY

binding [1]: binds
binding [2]: binds
B3: GFP-ALDOC (Aldolase C, fructose bisphosphate) (enzyme, UniProt P09972 1-364)
chain: MPHSYPALSAEQKKELSDIALRIVAPGKGILAADESVGSMAKRLSQIGVENTEENRRLYRQVLFSADDRVKKCIGGVIFFHETLYQKDDNGVPFVRTIQDKGIVVGIKVDKGVVPLAGTDGETTTQGLDGLSERCAQYKKDGADFAKWRCVLKISERTPSALAILENANVLARYASICQQNGIVPIVEPEILPDGDHDLKRCQYVTEKVLAAVYKALSDHHVYLEGTLLKPNMVTPGHACPIKYTPEEIAMATVTALRRTVPPAVPGVTFLSGGQSEEEASFNLNAINRCPLPRPWALTFSYGRALQASALNAWRGQRDNAGAATEEFIKRAEVNGLAAQGKYEGSGEDGGAAAQSLYIANHAY
